The target in one data set is HER2 (UniProt P04626). As to the kind of experiment: live-cell staining, whole-cell Raman. The conditions noted are these: 5 mM MgCl2, 10 nM Rdot conjugate; 5' amino modifier C6 (5AmMC6); DPBS, 5 mM MgCl2, 1 mg/mL yeast tRNA, 1% BSA; 10 nM Rdot conjugates, 30 min on ice; aptamers annealed at 90 C for 4 min then slowly cooled to RT; protein on the cell surface; label: Rdot2052 (40 nm PEGylated Raman dot, via 5' amine); single-stranded DNA.

Chains of the proteins cited; added tags and fusions are not shown. Lines headed by an entry give the natural chain unless they say otherwise; changes in a name come on top. Residues count along the entry.
UniProt P16422, 24-314: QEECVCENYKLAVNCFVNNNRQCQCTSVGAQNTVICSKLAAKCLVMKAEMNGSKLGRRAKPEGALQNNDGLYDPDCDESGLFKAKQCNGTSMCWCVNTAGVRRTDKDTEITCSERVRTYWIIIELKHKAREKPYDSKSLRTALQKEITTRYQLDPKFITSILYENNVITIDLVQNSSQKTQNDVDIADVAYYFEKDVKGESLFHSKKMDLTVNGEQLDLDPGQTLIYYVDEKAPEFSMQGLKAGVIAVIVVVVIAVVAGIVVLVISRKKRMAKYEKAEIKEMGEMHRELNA
UniProt P15941: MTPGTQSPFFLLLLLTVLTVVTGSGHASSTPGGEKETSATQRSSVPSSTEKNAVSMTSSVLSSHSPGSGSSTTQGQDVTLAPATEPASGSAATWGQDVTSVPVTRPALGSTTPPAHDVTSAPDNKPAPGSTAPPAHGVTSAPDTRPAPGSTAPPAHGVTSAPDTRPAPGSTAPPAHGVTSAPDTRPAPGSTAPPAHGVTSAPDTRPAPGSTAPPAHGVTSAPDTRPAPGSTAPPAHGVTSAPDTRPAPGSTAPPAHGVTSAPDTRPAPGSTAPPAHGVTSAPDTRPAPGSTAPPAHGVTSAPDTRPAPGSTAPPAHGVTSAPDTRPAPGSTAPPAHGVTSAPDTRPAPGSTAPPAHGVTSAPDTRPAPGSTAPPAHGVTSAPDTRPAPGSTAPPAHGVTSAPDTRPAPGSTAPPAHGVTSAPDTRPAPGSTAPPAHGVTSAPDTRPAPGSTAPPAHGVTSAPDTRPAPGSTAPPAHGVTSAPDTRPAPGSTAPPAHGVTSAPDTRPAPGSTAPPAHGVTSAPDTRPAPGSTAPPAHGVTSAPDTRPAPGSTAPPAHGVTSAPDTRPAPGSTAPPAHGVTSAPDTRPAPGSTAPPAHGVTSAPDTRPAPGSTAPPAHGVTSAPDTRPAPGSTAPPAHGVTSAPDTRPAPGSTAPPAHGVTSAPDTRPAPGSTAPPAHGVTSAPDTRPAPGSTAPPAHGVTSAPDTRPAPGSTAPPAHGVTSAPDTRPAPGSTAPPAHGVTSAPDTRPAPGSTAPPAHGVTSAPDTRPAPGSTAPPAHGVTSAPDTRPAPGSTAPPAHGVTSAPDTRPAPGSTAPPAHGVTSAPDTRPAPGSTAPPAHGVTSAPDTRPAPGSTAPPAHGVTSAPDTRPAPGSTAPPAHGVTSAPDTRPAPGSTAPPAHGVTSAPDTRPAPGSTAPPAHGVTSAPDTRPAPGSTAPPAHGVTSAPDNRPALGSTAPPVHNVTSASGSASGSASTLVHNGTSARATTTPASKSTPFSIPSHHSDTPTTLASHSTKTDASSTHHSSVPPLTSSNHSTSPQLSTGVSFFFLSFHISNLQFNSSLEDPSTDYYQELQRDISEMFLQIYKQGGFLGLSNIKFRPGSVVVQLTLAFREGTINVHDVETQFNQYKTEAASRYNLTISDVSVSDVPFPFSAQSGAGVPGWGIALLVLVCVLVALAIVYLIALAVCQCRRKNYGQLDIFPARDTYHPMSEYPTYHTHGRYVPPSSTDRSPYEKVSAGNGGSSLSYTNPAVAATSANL
UniProt P19338, 2-710: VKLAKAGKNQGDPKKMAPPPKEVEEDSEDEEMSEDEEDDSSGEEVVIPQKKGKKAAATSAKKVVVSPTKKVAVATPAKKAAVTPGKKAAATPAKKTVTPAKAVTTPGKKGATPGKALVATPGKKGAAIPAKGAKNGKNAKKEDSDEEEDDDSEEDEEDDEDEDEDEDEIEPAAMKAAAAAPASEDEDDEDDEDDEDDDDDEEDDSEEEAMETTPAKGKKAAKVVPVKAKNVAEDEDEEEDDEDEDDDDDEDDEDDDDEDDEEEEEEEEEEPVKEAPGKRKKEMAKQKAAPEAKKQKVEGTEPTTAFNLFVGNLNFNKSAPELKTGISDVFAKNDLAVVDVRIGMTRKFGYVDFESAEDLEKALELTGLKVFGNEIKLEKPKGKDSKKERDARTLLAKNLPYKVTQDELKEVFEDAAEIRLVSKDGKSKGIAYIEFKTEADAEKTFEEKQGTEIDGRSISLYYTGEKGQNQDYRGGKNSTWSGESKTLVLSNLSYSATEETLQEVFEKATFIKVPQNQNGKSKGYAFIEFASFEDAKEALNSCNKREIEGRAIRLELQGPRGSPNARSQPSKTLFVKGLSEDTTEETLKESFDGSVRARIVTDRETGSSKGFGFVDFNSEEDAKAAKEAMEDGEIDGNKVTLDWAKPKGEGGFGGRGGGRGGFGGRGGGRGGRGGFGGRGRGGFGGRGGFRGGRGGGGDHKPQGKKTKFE

In another data set the target is EpCAM (UniProt P16422). As to the kind of experiment: live-cell staining, whole-cell Raman and SRS imaging. The conditions noted are these: 5 mM MgCl2, 10 nM Rdot conjugate; 5' amino modifier C6 (5AmMC6); DPBS, 5 mM MgCl2, 1 mg/mL yeast tRNA, 1% BSA; 10 nM Rdot conjugates, 30 min on ice; aptamers annealed at 90 C for 4 min then slowly cooled to RT; protein on the cell surface; label: Rdot2194 (40 nm PEGylated Raman dot, via 5' amine); single-stranded DNA.

The next data set concerns the target MUC1 (UniProt P15941). Briefly: live-cell staining, whole-cell Raman. As to conditions: 5 mM MgCl2, 10 nM Rdot conjugate; 5' amino modifier C6 (5AmMC6); DPBS, 5 mM MgCl2, 1 mg/mL yeast tRNA, 1% BSA; 10 nM Rdot conjugates, 30 min on ice; aptamers annealed at 90 C for 4 min then slowly cooled to RT; protein on the cell surface; label: Rdot2175 (40 nm PEGylated Raman dot, via 5' amine); single-stranded DNA.

For the next data set, the target named is nucleolin (UniProt P19338). Briefly: live-cell staining, whole-cell Raman. The conditions noted are these: 5 mM MgCl2, 10 nM Rdot conjugate; 5' amino modifier C6 (5AmMC6); DPBS, 5 mM MgCl2, 1 mg/mL yeast tRNA, 1% BSA; 10 nM Rdot conjugates, 30 min on ice; aptamers annealed at 90 C for 4 min then slowly cooled to RT; protein on the cell surface; label: Rdot2218 (40 nm PEGylated Raman dot, via 5' amine); single-stranded DNA.

For at least one entry, the source does not settle the construct or the ends of the probe. At least one result comes from cells or an extract, where the contact may be indirect. At least one verdict rests on a figure or table, not on a statement of the authors.

Consider “TTTTTTAACCGCCCAAATCCCTAAGAGTCTGCACTTGTCATTTTGTATATGTATTTGGTTTTTGGCTCTCACAGACACACTACACACGCACA [HER2 aptamer]”, for which the binding result with HER2 is recorded as “binds”. For the sequence “TTTTTTCACTACAGAGGTTGCGTCTGTCCCACGTTGTCATGGGGGGTTGGCCTG [EpCAM aptamer]”, the binding result with EpCAM is “binds”. In the case of “TTTTTTGCAGTTGATCCTTTGGATACCCTGG [MUC1 aptamer]”, the binding result with MUC1 is reported as “binds”. With “TTTTTTGGTGGTGGTGGTTGTGGTGGTGGTGG [Nucleolin aptamer]”, the binding result with nucleolin is “binds”.

Source of the values: publication PMC8184955.
